Laboratory results published in PMC7971226.
Results are given in words; binding and its absence hold for the method and conditions named. In cells and extracts the contact can be indirect. Some results given as binding are weak or reduced against the parent protein; the word gives no strength.

Sequences of proteins named here, by UniProt entry; tags and fusion partners are left off. A change or cut given only in a name is not applied to a line headed by its entry.
UniProt P05556: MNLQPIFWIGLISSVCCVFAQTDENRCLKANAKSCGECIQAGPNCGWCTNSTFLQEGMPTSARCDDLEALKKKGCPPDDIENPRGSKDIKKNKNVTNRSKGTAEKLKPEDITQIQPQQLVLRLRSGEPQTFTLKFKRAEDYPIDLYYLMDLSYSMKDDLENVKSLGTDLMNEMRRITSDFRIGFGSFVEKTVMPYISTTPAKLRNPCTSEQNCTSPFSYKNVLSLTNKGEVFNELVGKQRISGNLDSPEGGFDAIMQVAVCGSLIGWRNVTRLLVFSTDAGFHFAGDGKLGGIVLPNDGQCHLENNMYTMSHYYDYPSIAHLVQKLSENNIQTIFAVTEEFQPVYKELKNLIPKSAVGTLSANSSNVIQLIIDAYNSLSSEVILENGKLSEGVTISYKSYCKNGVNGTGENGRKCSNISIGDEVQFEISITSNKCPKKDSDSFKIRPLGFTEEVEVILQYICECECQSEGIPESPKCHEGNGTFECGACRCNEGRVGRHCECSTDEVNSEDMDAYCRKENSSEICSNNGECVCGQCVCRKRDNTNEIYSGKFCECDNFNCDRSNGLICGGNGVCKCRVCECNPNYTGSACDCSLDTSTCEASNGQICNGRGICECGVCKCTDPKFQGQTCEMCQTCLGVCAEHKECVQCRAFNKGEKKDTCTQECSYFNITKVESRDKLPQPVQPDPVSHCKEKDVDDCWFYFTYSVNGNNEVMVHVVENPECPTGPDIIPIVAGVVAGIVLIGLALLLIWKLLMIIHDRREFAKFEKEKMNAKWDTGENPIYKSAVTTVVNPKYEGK
UniProt Q05397: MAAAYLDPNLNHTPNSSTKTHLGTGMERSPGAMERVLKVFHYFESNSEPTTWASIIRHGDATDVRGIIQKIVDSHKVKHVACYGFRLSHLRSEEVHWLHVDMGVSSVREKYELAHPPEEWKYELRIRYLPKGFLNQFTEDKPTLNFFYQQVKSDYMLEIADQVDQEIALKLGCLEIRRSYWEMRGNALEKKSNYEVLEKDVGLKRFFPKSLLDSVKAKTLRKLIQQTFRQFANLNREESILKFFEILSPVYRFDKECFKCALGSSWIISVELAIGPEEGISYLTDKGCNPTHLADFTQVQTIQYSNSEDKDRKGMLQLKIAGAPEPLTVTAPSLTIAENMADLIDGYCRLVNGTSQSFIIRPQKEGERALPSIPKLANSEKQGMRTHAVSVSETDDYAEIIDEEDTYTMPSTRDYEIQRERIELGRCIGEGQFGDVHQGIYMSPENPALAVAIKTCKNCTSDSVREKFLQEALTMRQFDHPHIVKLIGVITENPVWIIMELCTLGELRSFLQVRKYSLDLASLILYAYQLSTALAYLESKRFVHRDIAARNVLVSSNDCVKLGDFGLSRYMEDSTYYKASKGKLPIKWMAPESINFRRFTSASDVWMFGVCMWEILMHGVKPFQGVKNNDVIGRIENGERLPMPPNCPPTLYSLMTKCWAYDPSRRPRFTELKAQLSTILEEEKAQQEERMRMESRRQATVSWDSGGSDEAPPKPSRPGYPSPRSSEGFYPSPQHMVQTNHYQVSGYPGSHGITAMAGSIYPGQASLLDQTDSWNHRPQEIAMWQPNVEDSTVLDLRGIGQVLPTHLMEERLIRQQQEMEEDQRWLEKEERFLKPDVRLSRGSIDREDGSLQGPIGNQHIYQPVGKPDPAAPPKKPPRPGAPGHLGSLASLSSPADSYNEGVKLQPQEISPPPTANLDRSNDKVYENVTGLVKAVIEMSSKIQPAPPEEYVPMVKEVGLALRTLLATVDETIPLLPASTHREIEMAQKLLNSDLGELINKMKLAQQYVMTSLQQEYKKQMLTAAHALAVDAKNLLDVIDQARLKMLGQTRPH

How the values were obtained:
[1] = target: integrin β1 (human (endogenous in SK-N-SH)) (UniProt P05556); experiment: co-IP; endogenous proteins of SK-N-SH cells; cells incubated 1 h with rhNTN1 in serum-free DMEM (25 ng/ml for NEO1-FAK; 200 ng/ml in the methods, 100 ng/ml in the results, for NEO1-integrin β1; treatment not told for FAK-integrin β1); extracts in 20 mM Tris pH 7.4, 150 mM NaCl, 1% NP-40; anti-FAK, anti-NEO1 or anti-integrin β1 on Dynabeads protein A, 1 h; Western blot
[2] = target: T1, Neogenin-1 (human (endogenous in SK-N-SH)) (UniProt Q92859); experiment: as above
T1 sequence: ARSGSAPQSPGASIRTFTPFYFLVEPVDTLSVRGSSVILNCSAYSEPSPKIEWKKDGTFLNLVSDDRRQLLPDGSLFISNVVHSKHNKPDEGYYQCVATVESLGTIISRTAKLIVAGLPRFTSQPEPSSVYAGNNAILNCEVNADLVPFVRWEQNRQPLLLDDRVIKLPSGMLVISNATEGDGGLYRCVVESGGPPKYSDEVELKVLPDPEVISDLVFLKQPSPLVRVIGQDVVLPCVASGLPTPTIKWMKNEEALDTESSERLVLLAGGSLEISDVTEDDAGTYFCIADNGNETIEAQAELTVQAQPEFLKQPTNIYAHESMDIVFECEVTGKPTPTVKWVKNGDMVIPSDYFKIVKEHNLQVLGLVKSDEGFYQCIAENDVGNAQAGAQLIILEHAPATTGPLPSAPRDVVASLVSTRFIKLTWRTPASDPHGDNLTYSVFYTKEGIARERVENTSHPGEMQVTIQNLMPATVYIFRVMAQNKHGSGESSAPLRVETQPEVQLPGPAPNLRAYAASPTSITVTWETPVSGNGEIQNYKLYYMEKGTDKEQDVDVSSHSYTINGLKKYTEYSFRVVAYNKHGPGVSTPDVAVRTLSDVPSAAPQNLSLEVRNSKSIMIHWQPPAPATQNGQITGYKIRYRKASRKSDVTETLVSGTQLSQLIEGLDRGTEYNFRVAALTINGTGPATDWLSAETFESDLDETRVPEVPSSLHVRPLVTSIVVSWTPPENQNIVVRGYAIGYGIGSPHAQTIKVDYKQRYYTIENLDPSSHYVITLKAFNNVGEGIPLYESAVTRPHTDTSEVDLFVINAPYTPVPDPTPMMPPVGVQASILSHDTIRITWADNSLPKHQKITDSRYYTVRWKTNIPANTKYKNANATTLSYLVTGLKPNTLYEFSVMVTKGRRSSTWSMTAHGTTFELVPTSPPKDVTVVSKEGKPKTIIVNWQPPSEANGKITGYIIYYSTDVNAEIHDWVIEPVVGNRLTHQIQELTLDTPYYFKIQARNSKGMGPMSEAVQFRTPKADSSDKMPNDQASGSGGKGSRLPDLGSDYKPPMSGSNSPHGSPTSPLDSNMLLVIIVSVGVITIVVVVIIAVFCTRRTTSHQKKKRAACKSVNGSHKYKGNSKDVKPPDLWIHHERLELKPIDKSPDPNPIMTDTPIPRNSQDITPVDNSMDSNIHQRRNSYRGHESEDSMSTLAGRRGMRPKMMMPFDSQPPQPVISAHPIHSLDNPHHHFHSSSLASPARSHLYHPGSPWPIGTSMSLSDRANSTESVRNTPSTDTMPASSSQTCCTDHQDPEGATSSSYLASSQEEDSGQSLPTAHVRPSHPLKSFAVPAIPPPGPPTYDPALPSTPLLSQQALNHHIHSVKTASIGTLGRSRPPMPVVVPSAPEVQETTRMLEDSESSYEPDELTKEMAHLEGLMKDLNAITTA

binding [1] | binding [2] | Substance
binds |  | Focal Adhesion Kinase (from UniProt Q05397 1-1052) (enzyme)
 | binds | integrin β1 (from UniProt P05556 21-798) (receptor)
